Experimental data taken from patent US20020102606A1.
No constants are given. Whether binding was seen depends on the method and setting. Some binding calls cover weakened binding; strength is not graded here.

Amino acid sequences for entries named in this document (tags omitted). A change or cut given only in a name is not applied to a line headed by its entry. Chains listed by the source or under a name are the forms on record and can include a tag or linker. Residues count along the entry.
UniProt Q16644, residues 114-304: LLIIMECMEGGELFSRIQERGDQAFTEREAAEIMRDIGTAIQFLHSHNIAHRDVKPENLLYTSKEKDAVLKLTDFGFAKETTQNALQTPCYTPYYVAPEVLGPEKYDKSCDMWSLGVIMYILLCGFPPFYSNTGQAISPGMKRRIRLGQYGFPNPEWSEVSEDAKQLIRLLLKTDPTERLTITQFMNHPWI
PRAK NUC 201-1104 T182D (bait) (Q8IW41, form named): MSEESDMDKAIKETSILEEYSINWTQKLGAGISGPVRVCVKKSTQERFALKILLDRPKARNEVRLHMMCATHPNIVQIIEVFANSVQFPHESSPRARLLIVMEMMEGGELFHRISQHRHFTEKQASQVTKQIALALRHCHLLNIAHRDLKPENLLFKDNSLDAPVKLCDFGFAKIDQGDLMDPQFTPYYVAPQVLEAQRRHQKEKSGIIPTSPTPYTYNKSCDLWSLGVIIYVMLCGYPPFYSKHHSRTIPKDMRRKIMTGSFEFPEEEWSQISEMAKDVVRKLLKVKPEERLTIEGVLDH
PRAK NUC 201-1104 K51M, T182D (bait) (Q8IW41, form named): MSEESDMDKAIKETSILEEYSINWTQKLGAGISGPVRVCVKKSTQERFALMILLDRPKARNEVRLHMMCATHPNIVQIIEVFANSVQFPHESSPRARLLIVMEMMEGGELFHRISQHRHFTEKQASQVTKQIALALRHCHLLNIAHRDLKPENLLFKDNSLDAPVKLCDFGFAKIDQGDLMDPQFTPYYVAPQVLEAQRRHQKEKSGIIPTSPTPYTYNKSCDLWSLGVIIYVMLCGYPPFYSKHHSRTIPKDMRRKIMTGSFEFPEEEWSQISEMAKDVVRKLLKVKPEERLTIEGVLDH
PRAK NUC 201-1609 K51M (bait) (Q8IW41, form named): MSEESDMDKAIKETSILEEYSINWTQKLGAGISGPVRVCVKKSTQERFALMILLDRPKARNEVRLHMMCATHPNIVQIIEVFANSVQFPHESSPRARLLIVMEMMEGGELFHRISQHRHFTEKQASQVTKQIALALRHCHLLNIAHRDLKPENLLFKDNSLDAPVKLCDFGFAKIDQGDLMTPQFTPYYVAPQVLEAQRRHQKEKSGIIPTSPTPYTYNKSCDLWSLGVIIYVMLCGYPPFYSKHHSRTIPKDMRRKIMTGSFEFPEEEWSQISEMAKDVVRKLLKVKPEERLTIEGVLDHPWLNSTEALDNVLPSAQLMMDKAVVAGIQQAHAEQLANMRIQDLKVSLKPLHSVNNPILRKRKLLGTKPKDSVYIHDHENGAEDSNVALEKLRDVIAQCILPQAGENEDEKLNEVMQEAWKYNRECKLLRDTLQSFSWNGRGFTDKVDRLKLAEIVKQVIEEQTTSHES
UniProt Q9BUB5: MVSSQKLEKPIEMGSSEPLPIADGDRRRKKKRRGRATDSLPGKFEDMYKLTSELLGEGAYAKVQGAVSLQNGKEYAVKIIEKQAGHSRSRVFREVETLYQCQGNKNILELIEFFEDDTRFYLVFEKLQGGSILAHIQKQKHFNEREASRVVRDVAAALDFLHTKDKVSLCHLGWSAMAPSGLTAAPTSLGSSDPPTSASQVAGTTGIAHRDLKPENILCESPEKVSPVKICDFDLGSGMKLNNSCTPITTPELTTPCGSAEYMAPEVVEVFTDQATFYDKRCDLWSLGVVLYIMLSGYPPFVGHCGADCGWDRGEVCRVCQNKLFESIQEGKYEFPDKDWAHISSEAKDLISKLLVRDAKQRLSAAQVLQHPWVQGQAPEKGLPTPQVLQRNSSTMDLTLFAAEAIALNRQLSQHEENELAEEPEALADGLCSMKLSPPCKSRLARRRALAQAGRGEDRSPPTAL

Assays:
[1] = biological target: T1, TIAR amino acids 1-48 (bait) (Mus musculus (Mouse)) (UniProt P70318); assay: yeast two-hybrid; prey clone found with the bait of the row
T1 sequence: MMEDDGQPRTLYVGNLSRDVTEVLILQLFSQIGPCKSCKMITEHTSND

[2] = biological target: T1, TIAR amino acids 1-48 (bait) (Mus musculus (Mouse)); assay: yeast two-hybrid
[3] = biological target: MAPKAP-K3 NUC 433-1003 (bait) (UniProt Q16644); assay: yeast two-hybrid; prey clone found with the bait of the row
[4] = biological target: MAPKAP-K3 NUC 433-1003 (bait) (UniProt Q16644); assay: yeast two-hybrid
[5] = biological target: PRAK NUC 201-1104 T182D (bait) (UniProt Q8IW41); assay: yeast two-hybrid; prey clone found with the bait of the row
[6] = biological target: PRAK NUC 201-1104 K51M, T182D (bait) (UniProt Q8IW41); assay: as above
[7] = biological target: PRAK NUC 201-1104 T182D (bait) (UniProt Q8IW41); assay: yeast two-hybrid
[8] = biological target: PRAK NUC 201-1104 K51M, T182D (bait) (UniProt Q8IW41); assay: yeast two-hybrid
[9] = biological target: PRAK NUC 201-1609 K51M (bait) (UniProt Q8IW41); assay: yeast two-hybrid; prey clone found with the bait of the row
[10] = biological target: PRAK NUC 201-1609 K51M (bait) (UniProt Q8IW41); assay: yeast two-hybrid
[11] = biological target: T2, TAB2, or TAK1 binding protein (UniProt Q9NYJ8); assay: yeast two-hybrid
T2 sequence (looked up): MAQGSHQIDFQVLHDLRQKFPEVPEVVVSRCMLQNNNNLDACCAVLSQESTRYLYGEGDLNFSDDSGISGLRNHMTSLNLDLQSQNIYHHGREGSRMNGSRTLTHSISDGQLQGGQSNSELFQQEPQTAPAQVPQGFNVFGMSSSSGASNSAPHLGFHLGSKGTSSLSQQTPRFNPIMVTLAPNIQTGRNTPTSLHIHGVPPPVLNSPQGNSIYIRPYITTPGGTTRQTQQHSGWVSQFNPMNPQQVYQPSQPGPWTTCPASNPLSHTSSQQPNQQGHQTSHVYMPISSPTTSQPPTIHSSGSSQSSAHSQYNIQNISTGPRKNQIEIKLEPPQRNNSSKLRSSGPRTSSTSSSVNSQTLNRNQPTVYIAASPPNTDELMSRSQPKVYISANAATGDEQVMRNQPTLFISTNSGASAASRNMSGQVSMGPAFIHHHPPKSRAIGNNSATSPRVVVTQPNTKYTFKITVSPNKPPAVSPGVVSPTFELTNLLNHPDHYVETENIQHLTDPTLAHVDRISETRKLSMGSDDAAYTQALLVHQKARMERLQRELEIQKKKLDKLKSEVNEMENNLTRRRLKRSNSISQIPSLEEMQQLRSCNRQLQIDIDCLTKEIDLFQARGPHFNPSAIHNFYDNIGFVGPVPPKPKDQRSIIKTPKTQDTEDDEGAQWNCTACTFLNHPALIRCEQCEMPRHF

LSF = biological target: T3, LSF (UniProt Q12800); assay: yeast two-hybrid
T3 sequence (looked up): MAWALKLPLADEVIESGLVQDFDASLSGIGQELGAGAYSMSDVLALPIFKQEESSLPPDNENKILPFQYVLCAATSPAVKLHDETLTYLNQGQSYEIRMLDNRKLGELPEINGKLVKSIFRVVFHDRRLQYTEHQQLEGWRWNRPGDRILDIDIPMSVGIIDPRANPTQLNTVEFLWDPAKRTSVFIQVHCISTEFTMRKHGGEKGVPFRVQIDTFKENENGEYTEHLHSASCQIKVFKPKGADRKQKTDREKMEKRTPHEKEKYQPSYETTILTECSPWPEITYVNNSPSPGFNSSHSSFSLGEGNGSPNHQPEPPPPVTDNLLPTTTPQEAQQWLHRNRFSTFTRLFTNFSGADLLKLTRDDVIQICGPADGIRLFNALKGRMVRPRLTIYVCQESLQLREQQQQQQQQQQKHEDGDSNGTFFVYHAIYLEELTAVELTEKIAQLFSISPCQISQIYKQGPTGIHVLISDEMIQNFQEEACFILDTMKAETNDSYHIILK

MNK1 = MNK1 (UniProt Q9BUB5); assay: yeast two-hybrid

B1: SEI1 NUC 131-549 (prey) (protein, human, UniProt Q9UHV2 18-157, looked up)
chain: PLAVDSWWLDPGHTAVAQAPPAVASSSLFDLSVLKLHHSLQQSEPDLRHLVLVVNTLRRIQASMAPAAALPPVPSPPAAPSVADNLLASSDAALSASMASLLEDLSHIEGLSQAPQPLADEGPPGRSIGGAAPSLGALDL
- binding [1]: binds
- binding [2]: binds

B2: ZFM1 NUC 910-1171 (prey) (protein, human, UniProt Q15637 177-263, looked up)
chain: IRGKGSVKEGKVGRKDGQMLPGEDEPLHALVTANTMENVKKAVEQIRNILKQGIETPEDQNDLRKMQLRELARLNGTLREDDNRILR
- binding [3]: binds
- binding [4]: binds

B3: KIAA1026 NUC 765-1194 (prey) (protein, human, UniProt Q674X7 206-348, looked up)
chain: WELRRQAKEATDHATALRSQLDLKDNRMKELEAELAMAKQSLATLTKDVPKRHSLAMPGETVLNGNQEWVVQADLPLTAAIRQSQQTLYHSHPPHPADRQAVRVSPCHSRQPSVISDASAAEGDRSSTPSDINSPRHRTHSLC
- binding [3]: binds
- binding [4]: binds

B4: Highly Charged Amino Acid Sequence (X59131) NUC 2832-3411 (prey) (protein, human, UniProt Q5W0Q7 900-1092, looked up)
chain: KKKLAALMSSPQSRTVRSENLEQVPQDGSPNDCESIEDLLNELPYPIDIASESACTTVPGVSLYSSQTHEEILAELLSPTPVSTELSENGEGDFRYLGMGDSHIPPPVPSEFNDVSQNTHLRQDHNYCSPTKKNPCEVQPDSLTNNACVRTLNLESPMKTDIFDEFFSSSALNALANDTLDLPHFDEYLFENY
- binding [3]: binds
- binding [4]: binds

B5: KIAA0555 NUC 1617-1983 (prey) (protein, human, UniProt Q96AA8 440-561, looked up)
chain: DSMDSETSSMASFRTDRTPATPDDDLDESLAAEESELRFRQLTKEYQALQRAYALLQEQTGGIIDAEREAKAQEQLQAEVLRYKAKIEDLEATLAQKGQDSHWVEDKQLFIKRNQELLEKIE
- binding [5]: binds
- binding [6]: binds
- binding [7]: binds
- binding [8]: binds

B6: Kinectin NUC 3647-4140 (prey) (protein, human, UniProt Q86UP2 1194-1357, looked up)
chain: SENKDIENLRREREHLEMELEKAEMERSTYVTEVRELKDLLTELQKKLDDSYSEAVRQNEELNLLKAQLNETLTKLRTEQNERQKVAGDLHKAQQSLELIQSKIVKAAGDTTVIENSDVSPETESSEKETMSVSLNQTVTQLQQLLQAVNQQLTKEKEHYQVLE
- binding [6]: binds
- binding [8]: binds

B7: Bicaudal-D NUC 210-1395 (prey) (protein, human, UniProt Q96G01 31-425, looked up)
chain: KIQAAEYGLVVLEEKLTLKQQYDELEAEYDSLKQELEQLKEAFGQSFSIHRKVAEDGETREETLLQESASKEAYYLGKILEMQNELKQSRAVVTNVQAENERLTAVVQDLKENNEMVELQRIRMKDEIREYKFREARLLQDYTELEEENITLQKLVSTLKQNQVEYEGLKHEIKRFEEETVLLNSQLEDAIRLKEIAEHQLEEALETLKNEREQKNNLRKELSQYISLNDNHISISVDGLKFAEDGSEPNNDDKMNGHIHGPLVKLNGDYRTPTLRKGESLNPVSDLFSELNISEIQKLKQQLMQVEREKAILLANLQESQTQLEHTKGALTEQHERVHRLTEHVNAMRGLQSSKELKAELDGEKGRDSGEEAHDYEVDINGLEILECKYRVAVT
- binding [9]: binds
- binding [10]: binds

B8: WBP-2 (construct not stated) (protein, UniProt Q969T9 1-261, looked up)
chain: MALNKNHSEGGGVIVNNTESILMSYDHVELTFNDMKNVPEAFKGTKKGTVYLTPYRVIFLSKGKDAMQSFMMPFYLMKDCEIKQPVFGANYIKGTVKAEAGGGWEGSASYKLTFTAGGAIEFGQRMLQVASQASRGEVPSGAYGYSYMPSGAYVYPPPVANGMYPCPPGYPYPPPPPEFYPGPPMMDGAMGYVQPPPPPYPGPMEPPVSGPDVPSTPAAEAKAAEAAASAYYNPGNPHNVYMPTSQPPPPPYYPPEDKKTQ
- binding [11]: binds

B9: Golgi Apparatus Protein 88 (GM88) NUC 909-1257 (prey) (protein, human, UniProt A7E2F4 237-352, looked up)
chain: QILLKGHVTQLKESLKEVQLERDQYAEQIKGERAQWQQRMRKMSQEVCTLKEEKKHDTHRVEELERSLSRLKNQMAEPLPPDAPAVSSEVELQDLRKELERVAGELQAQVENNQCI
- binding [3]: binds
- binding [4]: binds

B10: KIAA0216 NUC 3913-4771 (prey) (protein, human, UniProt Q92614 1255-1540, looked up)
chain: QIRNKDEEIQQLRSKLEKAEKERNELRLNSDRLESRISELTSELTDERNTGESASQLLDAETAERLRAEKEMKELQTQYDALKKQMEVMEMEVMEARLIRAAEINGEVDDDDAGGEWRLKYERAVREVDFTKKRLQQEFEDKLEVEQQNKRQLERRLGDLQADSEESQRALQQLKKKCQRLTAELQDTKLHLEGQQVRNHELEKKQRRFDSELSQAHEEAQREKLQREKLQREKDMLLAEAFSLKQQLEEKDMDIAGFTQKVVSLEAELQDISSQESKDEASLAKV
- binding [3]: binds
- binding [4]: binds

B11: ZFM1 (construct not stated) (protein, UniProt Q15637 1-639, looked up)
chain: MATGANATPLDFPSKKRKRSRWNQDTMEQKTVIPGMPTVIPPGLTREQERAYIVQLQIEDLTRKLRTGDLGIPPNPEDRSPSPEPIYNSEGKRLNTREFRTRKKLEEERHNLITEMVALNPDFKPPADYKPPATRVSDKVMIPQDEYPEINFVGLLIGPRGNTLKNIEKECNAKIMIRGKGSVKEGKVGRKDGQMLPGEDEPLHALVTANTMENVKKAVEQIRNILKQGIETPEDQNDLRKMQLRELARLNGTLREDDNRILRPWQSSETRSITNTTVCTKCGGAGHIASDCKFQRPGDPQSAQDKARMDKEYLSLMAELGEAPVPASVGSTSGPATTPLASAPRPAAPANNPPPPSLMSTTQSRPPWMNSGPSESRPYHGMHGGGPGGPGGGPHSFPHPLPSLTGGHGGHPMQHNPNGPPPPWMQPPPPPMNQGPHPPGHHGPPPMDQYLGSTPVGSGVYRLHQGKGMMPPPPMGMMPPPPPPPSGQPPPPPSGPLPPWQQQQQQPPPPPPPSSSMASSTPLPWQQNTTTTTTSAGTGSIPPWQQQQAAAAASPGAPQMQGNPTMVPLPPGVQPPLPPGAPPPPPPPPPGSAGMMYAPPPPPPPPMDPSNFVTMMGMGVAGMPPFGMPPAPPPPPPQN
- binding (LSF): binds

B12: Homer-3 (construct not stated) (protein, UniProt Q9NSC5 1-361, looked up)
chain: MSTAREQPIFSTRAHVFQIDPATKRNWIPAGKHALTVSYFYDATRNVYRIISIGGAKAIINSTVTPNMTFTKTSQKFGQWADSRANTVYGLGFASEQHLTQFAEKFQEVKEAARLAREKSQDGGELTSPALGLASHQVPPSPLVSANGPGEEKLFRSQSADAPGPTERERLKKMLSEGSVGEVQWEAEFFALQDSNNKLAGALREANAAAAQWRQQLEAQRAEAERLRQRVAELEAQAASEVTPTGEKEGLGQGQSLEQLEALVQTKDQEIQTLKSQTGGPREALEAAEREETQQKVQDLETRNAELEHQLRAMERSLEEARAERERARAEVGRAAQLLDVSLFELSELREGLARLAEAAP
- binding (MNK1): binds
